{
  "sequences": {"note": "Chains of the proteins cited; added tags and fusions are not shown. Lines headed by an entry give the natural chain unless they say otherwise; changes in a name come on top.", "UniProt G4NJG9": "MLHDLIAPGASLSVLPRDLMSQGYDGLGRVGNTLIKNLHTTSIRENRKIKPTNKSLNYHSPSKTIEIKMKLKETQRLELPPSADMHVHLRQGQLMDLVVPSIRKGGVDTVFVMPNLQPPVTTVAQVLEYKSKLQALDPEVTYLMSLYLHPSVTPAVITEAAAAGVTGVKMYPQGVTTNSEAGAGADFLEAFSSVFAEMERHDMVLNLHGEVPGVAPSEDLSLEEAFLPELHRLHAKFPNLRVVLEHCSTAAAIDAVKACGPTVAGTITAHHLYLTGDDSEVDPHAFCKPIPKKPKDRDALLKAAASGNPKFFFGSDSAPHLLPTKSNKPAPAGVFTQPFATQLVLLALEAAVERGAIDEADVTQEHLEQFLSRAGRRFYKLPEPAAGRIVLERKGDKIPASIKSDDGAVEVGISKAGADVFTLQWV"},
  "source": "paper PMC11247805",
  "target": "T1, MoAtg5-GFP (Magnaporthe oryzae) (UniProt Q525E4)",
  "T1 sequence": "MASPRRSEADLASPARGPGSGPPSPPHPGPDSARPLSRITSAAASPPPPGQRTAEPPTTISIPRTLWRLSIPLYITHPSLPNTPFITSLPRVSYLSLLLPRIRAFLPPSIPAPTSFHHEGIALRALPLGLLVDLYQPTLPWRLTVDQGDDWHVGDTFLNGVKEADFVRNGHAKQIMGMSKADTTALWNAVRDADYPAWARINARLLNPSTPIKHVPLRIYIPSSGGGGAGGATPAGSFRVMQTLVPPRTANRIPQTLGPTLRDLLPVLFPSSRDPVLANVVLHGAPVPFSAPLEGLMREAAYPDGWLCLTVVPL",
  "assay": "affinity purification with mass spectrometry",
  "note": "No constants are given. Whether binding was seen depends on the method and setting. Binding seen in cells or lysates may run through a third protein. Here binding means that the protein was enriched with, or labelled near, the bait; the list need not be complete. Where a sequence is shown, tags or fusion partners need not be part of it.",
  "data": [
    {"substance": "MoPyr4 (found in the immunoprecipitate of MoAtg5-GFP) (from UniProt G4NJG9) (enzyme)", "values": [
      {"measurement": "binding", "value": "binds"}
    ]}
  ]
}
